Like-named read-outs stand apart in the source and are kept apart here.

The subject of data set [1] is patients with advanced solid tumors. The following applies: for dose-limiting toxicities (DLTs), patients with DLT/cohort: G4 neutropenia.
The test system of a further data set is pH2AX and/or pKAP1. The following applies: at exposures associated with preclinical anti-tumor activity.
The conditions of data set [2]: 5-80 mg BID cohorts.

For the molecule `C[C@@H]1COCCN1c1cc(-c2ccnn2C)c2ccnc(-c3ccn[nH]3)c2n1` [BAY 1895344, 2-[(3R)-3-methylmorpholin-4-yl]-4-(1-methyl-1H-pyrazol-5-yl)-8-(1H-pyrazol-5-yl)-1,7-naphthyridine], the “dose limiting toxicity (DLT)” value in data set [1] (60 mg BID and 80 mg BID, 3 days on/11 days off) is listed as “no DLTs”. Besides, the “dose-limiting toxicities (DLTs), patients with DLT/cohort” value in data set [1] (60 mg cohort, BID, 3 days on/4 days off, G2 fatigue) is given as 2/7; in data set [1] (80 mg cohort, BID, 3 days on/4 days off, G4 neutropenia and G4 thrombocytopenia) it was 2/3. Besides, the “maximum tolerated dose (MTD)” value in data set [1] (3 on/4 off schedule) is listed as 40 mg BID. In addition, in data set [1] (5-40 mg cohorts, BID, 3 days on/4 days off), the “dose-limiting toxicities (DLTs)” value is listed as “No dose-limiting toxicities (DLTs) were reported”. In addition, the “most common treatment emergent adverse events” value in data set [1] (5-80 mg BID, 3 days on/4 days off) is “anemia, neutropenia, nausea and fatigue”. The “pharmacodynamic modulation in paired tumor biopsies” value in the data set with pH2AX and/or pKAP1 was “modulation of pH2AX and/or pKAP1”. Further, the “pharmacokinetics, dose dependence” value in data set [2] is listed as “dose-proportional”.

(Values after patent US20220117973A1, “THE ATR KINASE INHIBITOR BAY1895344 FOR USE IN THE TREATMENT OF A HYPER-PROLIFERATIVE DISEASE” (Bayer Aktiengesellschaft, priority 2019, published 2022).)
